In the supplement of paper PMC10849652:
The list shows a part of the results.

The chains behind the UniProt entries cited, without tags or fusion partners. Where a name states a change or a piece, a line headed by the entry shows the natural chain unless it says otherwise.
UniProt P63146, whole entry, looked up: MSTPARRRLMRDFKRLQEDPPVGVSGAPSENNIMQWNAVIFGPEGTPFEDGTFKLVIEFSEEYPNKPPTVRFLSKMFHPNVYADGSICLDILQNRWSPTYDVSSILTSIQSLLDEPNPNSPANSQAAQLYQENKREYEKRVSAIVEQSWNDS
UniProt P63279, whole entry, looked up: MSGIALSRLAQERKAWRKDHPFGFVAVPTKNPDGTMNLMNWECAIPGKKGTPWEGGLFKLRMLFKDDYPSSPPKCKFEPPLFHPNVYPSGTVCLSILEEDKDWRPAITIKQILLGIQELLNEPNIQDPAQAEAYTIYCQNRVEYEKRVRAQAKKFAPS
UniProt P68363, whole entry, looked up: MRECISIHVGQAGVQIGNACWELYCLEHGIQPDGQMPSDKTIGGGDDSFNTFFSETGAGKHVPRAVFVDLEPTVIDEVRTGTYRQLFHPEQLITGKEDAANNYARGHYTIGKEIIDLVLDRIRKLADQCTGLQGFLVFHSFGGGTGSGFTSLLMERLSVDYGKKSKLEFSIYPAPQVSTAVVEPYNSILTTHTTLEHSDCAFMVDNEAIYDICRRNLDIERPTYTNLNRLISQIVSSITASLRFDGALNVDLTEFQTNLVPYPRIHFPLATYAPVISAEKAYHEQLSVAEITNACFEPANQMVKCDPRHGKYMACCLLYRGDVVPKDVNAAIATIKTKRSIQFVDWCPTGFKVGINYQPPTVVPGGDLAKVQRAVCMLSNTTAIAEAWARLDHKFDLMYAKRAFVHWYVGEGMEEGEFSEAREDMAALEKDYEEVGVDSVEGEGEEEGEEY
UniProt Q9BRA2: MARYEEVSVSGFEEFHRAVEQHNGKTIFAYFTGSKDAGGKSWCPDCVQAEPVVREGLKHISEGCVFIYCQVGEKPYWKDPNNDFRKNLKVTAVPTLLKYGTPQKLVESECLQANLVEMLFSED
UniProt Q9BZV1: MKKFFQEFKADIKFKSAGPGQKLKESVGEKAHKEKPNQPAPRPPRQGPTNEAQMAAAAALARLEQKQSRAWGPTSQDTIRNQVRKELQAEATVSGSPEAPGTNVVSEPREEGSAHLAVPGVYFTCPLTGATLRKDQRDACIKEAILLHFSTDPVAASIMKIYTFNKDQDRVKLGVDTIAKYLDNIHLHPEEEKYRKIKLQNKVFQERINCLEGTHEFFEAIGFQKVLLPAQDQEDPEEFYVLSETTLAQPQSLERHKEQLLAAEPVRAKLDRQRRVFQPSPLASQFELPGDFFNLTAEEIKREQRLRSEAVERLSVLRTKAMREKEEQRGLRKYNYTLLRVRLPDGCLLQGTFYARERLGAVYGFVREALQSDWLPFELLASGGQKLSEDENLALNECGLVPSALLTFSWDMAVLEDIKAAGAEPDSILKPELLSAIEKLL
UniProt Q96CW5, whole entry, looked up: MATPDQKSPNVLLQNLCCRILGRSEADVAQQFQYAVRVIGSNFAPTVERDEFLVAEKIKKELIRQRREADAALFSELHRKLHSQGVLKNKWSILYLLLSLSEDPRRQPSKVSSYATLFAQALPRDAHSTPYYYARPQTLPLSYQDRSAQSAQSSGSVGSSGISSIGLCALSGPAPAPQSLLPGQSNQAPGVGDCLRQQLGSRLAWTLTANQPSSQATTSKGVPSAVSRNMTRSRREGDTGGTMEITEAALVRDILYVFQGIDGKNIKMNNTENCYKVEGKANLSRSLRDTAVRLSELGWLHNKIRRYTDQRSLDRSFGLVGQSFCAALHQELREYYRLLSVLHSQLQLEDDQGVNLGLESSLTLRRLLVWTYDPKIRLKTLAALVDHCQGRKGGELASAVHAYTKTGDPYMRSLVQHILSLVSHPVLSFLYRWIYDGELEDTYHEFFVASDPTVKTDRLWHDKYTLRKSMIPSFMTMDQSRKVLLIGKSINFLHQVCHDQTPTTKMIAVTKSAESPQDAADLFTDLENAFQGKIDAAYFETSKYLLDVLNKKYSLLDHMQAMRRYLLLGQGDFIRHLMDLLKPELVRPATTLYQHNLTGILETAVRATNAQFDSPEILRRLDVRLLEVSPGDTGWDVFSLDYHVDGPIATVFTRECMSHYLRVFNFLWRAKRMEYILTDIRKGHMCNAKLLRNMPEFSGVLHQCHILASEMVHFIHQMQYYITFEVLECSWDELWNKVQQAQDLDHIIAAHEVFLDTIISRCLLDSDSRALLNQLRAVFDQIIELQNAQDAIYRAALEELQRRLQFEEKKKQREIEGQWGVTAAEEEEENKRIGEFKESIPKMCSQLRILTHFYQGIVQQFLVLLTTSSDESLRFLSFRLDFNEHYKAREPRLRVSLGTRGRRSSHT
UniProt Q96RT7, whole entry, looked up: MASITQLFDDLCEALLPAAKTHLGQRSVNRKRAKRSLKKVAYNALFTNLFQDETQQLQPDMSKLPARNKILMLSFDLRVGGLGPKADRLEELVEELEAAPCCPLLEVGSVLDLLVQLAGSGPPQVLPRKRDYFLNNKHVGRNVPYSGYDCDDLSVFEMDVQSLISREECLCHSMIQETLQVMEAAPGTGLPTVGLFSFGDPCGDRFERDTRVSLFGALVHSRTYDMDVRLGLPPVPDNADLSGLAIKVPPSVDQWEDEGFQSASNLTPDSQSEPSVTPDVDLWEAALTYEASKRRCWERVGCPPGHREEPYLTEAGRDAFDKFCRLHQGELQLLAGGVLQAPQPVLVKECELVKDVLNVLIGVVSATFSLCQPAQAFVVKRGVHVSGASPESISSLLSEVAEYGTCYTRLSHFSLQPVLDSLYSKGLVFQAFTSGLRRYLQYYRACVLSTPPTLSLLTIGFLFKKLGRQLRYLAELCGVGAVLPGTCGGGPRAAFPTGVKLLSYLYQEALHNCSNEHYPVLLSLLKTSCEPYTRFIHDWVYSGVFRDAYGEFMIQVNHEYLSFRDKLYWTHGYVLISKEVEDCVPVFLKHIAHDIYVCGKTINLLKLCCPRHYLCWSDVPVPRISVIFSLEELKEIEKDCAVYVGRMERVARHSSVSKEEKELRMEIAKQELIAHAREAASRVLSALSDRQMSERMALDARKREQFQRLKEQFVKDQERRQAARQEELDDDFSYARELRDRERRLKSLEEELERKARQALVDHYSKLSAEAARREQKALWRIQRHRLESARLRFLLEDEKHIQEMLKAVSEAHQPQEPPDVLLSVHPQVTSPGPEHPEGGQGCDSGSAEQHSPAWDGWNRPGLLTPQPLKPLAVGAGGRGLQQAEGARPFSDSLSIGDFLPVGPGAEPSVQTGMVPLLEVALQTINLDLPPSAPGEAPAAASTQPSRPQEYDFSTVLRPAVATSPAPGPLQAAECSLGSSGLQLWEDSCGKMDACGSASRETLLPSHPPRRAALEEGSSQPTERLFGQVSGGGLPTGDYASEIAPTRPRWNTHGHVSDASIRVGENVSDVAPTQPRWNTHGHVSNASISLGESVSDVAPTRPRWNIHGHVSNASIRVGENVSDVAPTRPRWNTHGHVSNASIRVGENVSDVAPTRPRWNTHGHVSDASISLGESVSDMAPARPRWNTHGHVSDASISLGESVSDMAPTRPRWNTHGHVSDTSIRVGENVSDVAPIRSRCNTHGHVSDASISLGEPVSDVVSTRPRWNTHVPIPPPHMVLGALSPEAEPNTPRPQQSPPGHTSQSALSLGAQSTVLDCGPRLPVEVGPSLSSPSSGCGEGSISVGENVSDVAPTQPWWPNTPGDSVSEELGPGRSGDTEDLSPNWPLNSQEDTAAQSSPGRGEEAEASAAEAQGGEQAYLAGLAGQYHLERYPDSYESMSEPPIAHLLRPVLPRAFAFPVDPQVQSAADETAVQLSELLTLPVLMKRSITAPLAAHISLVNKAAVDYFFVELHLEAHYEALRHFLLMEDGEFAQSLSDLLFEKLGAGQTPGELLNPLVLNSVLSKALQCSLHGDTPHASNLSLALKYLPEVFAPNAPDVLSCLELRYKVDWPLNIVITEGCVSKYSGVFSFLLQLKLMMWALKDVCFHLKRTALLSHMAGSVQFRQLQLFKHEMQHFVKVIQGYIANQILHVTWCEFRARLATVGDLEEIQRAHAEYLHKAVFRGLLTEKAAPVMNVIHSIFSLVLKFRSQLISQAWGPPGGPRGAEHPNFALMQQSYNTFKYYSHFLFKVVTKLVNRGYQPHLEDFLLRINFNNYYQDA
UniProt P68036, whole entry, looked up: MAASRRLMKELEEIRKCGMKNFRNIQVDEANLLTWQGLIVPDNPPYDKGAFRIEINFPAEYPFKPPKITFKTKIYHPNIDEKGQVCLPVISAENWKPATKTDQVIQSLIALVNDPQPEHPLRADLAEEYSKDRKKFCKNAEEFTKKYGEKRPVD
UniProt Q9NZ09: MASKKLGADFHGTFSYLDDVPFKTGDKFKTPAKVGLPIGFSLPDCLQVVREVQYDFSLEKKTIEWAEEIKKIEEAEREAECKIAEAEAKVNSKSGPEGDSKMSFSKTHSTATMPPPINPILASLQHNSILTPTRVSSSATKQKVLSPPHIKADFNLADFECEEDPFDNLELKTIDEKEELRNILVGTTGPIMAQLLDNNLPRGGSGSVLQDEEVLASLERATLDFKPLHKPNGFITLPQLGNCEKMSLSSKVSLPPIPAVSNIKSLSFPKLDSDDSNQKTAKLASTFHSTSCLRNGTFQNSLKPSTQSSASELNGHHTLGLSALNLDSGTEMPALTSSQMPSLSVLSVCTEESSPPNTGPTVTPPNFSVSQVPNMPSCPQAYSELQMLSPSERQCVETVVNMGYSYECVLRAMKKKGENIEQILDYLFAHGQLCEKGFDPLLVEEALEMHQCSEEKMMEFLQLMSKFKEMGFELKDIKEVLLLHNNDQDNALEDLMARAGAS
UniProt Q6ZT12: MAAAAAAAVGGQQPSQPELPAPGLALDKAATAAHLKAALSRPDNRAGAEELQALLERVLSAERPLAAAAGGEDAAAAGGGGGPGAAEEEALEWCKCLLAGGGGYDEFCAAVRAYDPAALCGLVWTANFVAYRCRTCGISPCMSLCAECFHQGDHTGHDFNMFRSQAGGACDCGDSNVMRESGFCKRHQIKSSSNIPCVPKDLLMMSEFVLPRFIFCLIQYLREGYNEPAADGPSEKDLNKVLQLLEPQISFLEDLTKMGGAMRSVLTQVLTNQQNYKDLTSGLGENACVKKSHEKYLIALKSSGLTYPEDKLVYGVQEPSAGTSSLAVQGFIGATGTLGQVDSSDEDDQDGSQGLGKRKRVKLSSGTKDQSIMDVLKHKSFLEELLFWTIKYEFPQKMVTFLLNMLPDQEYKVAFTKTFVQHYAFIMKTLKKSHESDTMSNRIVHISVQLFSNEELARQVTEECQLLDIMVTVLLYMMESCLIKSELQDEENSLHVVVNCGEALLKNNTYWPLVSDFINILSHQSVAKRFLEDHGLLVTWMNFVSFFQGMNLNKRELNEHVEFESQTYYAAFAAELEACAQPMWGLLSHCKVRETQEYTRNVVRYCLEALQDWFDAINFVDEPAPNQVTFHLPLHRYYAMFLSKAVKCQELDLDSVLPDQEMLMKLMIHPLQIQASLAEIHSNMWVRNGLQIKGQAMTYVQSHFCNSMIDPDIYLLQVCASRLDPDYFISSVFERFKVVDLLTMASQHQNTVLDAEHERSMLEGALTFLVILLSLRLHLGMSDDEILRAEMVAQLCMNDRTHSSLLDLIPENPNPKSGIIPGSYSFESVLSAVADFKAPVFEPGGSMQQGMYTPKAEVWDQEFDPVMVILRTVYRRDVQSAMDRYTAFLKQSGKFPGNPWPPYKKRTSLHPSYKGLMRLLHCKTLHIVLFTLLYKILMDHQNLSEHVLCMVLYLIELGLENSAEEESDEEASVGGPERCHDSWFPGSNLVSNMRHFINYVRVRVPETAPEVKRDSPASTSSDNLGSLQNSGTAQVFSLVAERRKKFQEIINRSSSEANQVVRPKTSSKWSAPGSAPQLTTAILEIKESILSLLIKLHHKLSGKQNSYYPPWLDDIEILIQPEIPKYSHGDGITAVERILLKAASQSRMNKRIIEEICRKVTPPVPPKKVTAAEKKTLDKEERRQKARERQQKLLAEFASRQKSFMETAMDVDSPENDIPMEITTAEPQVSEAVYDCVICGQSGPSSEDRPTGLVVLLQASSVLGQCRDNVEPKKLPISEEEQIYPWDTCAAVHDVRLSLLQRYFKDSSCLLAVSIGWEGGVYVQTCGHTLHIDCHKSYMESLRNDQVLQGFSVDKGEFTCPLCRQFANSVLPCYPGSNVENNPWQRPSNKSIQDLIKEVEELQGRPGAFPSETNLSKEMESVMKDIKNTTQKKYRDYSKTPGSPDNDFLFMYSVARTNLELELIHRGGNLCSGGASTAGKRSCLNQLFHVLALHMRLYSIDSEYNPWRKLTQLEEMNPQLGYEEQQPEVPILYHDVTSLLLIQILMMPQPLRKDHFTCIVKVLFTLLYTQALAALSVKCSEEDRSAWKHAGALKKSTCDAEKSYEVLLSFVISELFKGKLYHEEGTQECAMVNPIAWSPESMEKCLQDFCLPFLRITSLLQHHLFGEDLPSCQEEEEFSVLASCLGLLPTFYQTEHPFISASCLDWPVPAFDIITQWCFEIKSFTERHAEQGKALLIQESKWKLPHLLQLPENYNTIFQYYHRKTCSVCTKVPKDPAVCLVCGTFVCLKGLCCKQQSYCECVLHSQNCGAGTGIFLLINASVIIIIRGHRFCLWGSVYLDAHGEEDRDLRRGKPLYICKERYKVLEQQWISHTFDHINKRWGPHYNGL

Experiments:
Assay in all cases: log2 fold change, soluble protein after heating vs DMSO (PISA); higher = thermal stabilisation; K562 lysate, 10 uM; active = over 0.2 and 3.5 SD of the protein, either way, in both replicates (recomputed)
[1] = compound: C1=CC=C(C=C1)[C@H](COC2=CC3=C(C=C2)NC(=O)N3)NC(=O)C4=CC=CN(C4=O)CC5=CC(=C(C=C5)F)F
Summary of the method: (§1)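 Quantification was by TMTpro 16plex LC-MS/MS with equalised channel sums, applied to the supernatant after 21,000xg for 90 min. Samples were crude K562 extract at 1 mg/mL protein in PBS pH 7.4 with 1 mM MgCl2, treated with 10 μM compound for 30 min, heated for 3 min across 48°C-58°C, pooled and brought to 0.5% NP-40 at 4°C. Values are log-two fold changes in thermal stability relative to solvent controls, from duplicates.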

[2] = compound: CC1=C(SC2=C1C(=N[C@H](C3=NN=C(N32)C)CC(=O)N)C4=CC=C(C=C4)Cl)C
Summary of the method: as §1

[3] = compound: CC1=C2C(=CC=C1)N=C(N(C2=O)C3=CC=CC=C3C)CN4C=NC5=C(N=CN=C54)N
Summary of the method: as §1

[4] = compound: Cc1sc2c(c1C)C(c1ccc(Cl)cc1)=N[C@@H](CC(=O)OC(C)(C)C)c1nnc(C)n1-2
Summary of the method: as §1

[5] = compound: c1ccc([C@@H]2C[C@H]2NC2CCNCC2)cc1
Summary of the method: as §1

Measured: log2 fold change

UBR2 isoform 4 (UniProt Q8IWV8)
inactive: [1] 0.051 | [2] -0.005 | [3] 0.02 | [4] -0.015 | [5] 0.031

TUBB2A (UniProt Q13885)
inactive: [1] 0.017 | [2] 0.01 | [3] 0 | [4] 0.003 | [5] -0.015

UBE2B (UniProt P63146)
inactive: [1] -0.023 | [2] 0.058 | [3] -0.034 | [4] 0.005 | [5] -0.01

TXNDC5 (UniProt Q8NBS9)
inactive: [1] 0.059 | [2] 0.005 | [3] -0.023 | [4] 0.017 | [5] -0.004

UBE2I (UniProt P63279)
inactive: [1] 0.019 | [2] -0.022 | [3] -0.013 | [4] 0.004 | [5] -0.063

TWISTNB (UniProt Q3B726)
inactive: [1] -0.009 | [2] 0.031 | [3] 0.117 | [4] -0.018 | [5] 0.039

U2AF1 isoform 2 (UniProt Q01081)
inactive: [1] 0.036 | [2] -0.007 | [3] -0.026 | [4] -0.039 | [5] 0.084

Random excerpt: 3 entries already listed.
UBE2I (UniProt P63279)
inactive: [1] 0.019 | [2] -0.022 | [3] -0.013 | [4] 0.004 | [5] -0.063

TXNDC5 (UniProt Q8NBS9)
inactive: [1] 0.059 | [2] 0.005 | [3] -0.023 | [4] 0.017 | [5] -0.004

TUBB2A (UniProt Q13885)
inactive: [1] 0.017 | [2] 0.01 | [3] 0 | [4] 0.003 | [5] -0.015

The listing continues:

UBE2I (UniProt H3BQQ9)
inactive: [1] -0.143 | [2] -0.169 | [3] 0.015 | [4] -0.21 | [5] -0.001

TUBA1B (UniProt P68363)
inactive: [1] -0.006 | [2] 0.014 | [3] 0.004 | [4] 0.015 | [5] -0.03

UBE2L6 (UniProt O14933)
inactive: [1] -0.01 | [2] 0 | [3] -0.068 | [4] 0.032 | [5] 0.008

UBR1 (UniProt Q8IWV7)
inactive: [1] -0.032 | [2] 0.002 | [3] -0.026 | [4] 0.026 | [5] 0

TXN (UniProt P10599)
inactive: [1] 0.045 | [2] -0.036 | [3] 0 | [4] 0.031 | [5] -0.065

UBA5 (UniProt Q9GZZ9)
inactive: [1] -0.041 | [2] 0.006 | [3] -0.003 | [4] 0.004 | [5] 0.028

UBE2S (UniProt Q16763)
inactive: [1] -0.017 | [2] 0.036 | [3] -0.024 | [4] 0 | [5] -0.009

UBE3B (UniProt Q7Z3V4)
inactive: [1] -0.085 | [2] -0.144 | [3] -0.047 | [4] -0.045 | [5] 0.078

TXNDC17 (UniProt Q9BRA2)
inactive: [1] -0.059 | [2] -0.052 | [3] -0.014 | [4] 0.018 | [5] -0.006

TUBAL3 (UniProt A6NHL2)
inactive: [1] -0.034 | [2] -0.051 | [3] 0.045 | [4] -0.189 | [5] -0.255

TTN isoform 12 (UniProt Q8WZ42)
inactive: [1] -0.028 | [2] -0.006 | [3] -0.04 | [4] -0.031 | [5] -0.205

UBXN6 (UniProt Q9BZV1)
inactive: [1] -0.03 | [2] 0.027 | [3] 0.03 | [4] 0.022 | [5] 0.031

UBAP2L isoform 1 (UniProt Q14157)
inactive: [1] -0.101 | [2] -0.087

TUBD1 (UniProt Q9UJT1)
inactive: [1] -0.114 | [2] -0.123 | [3] 0.094 | [4] -0.046 | [5] -0.035

TUBGCP3 (UniProt Q96CW5)
inactive: [1] -0.007 | [2] -0.004 | [3] 0.011 | [4] 0.008 | [5] 0.037

TUBGCP6 (UniProt Q96RT7)
inactive: [1] -0.019 | [2] 0.09 | [3] -0.03 | [4] -0.006 | [5] -0.06

TUBB (UniProt P07437)
inactive: [1] 0.025 | [2] 0.027 | [3] -0.005 | [4] 0.014 | [5] -0.001

TUBE1 (UniProt Q9UJT0)
inactive: [1] -0.019 | [2] 0.003 | [3] 0.019 | [4] -0.064 | [5] 0.107

TUSC3 isoform 2 (UniProt Q13454)
inactive: [1] -0.012 | [2] -0.006 | [3] 0.032 | [4] -0.007 | [5] -0.082

UBE4B isoform 4 (UniProt O95155)
inactive: [1] 0.009 | [2] 0.004 | [3] -0.001 | [4] -0.015 | [5] -0.007

TXNDC15 (UniProt Q96J42)
inactive: [1] 0.004 | [2] -0.012 | [3] 0.009 | [4] -0.094 | [5] 0.042

TUBGCP5 (UniProt Q96RT8)
inactive: [1] -0.209 | [2] 0.088 | [3] 0.039 | [4] -0.093 | [5] 0.071

UBC (UniProt P0CG48)
inactive: [1] 0.002 | [2] -0.006 | [3] 0.019 | [4] -0.02 | [5] 0.162

UBE2L3 isoform 3 (UniProt P68036)
inactive: [1] -0.013 | [2] 0.008 | [3] -0.014 | [4] -0.016 | [5] 0.026

UBQLN4 (UniProt Q9NRR5)
inactive: [1] 0.006 | [2] -0.106 | [3] -0.046 | [4] -0.035 | [5] 0.014

UBAP1 (UniProt Q9NZ09)
inactive: [1] 0.024 | [2] -0.094 | [3] -0.032 | [4] 0.013 | [5] -0.028

UBE2J2 (UniProt Q8N2K1)
inactive: [1] -0.089 | [2] -0.017 | [3] -0.029 | [4] -0.141 | [5] 0.046

UBA1 (UniProt P22314)
inactive: [1] -0.018 | [2] 0.043 | [3] 0 | [4] 0.045 | [5] 0.04

UBR3 isoform 4 (UniProt Q6ZT12)
inactive: [1] -0.027 | [2] -0.032 | [3] 0.009 | [4] -0.016 | [5] 0.076

UBFD1 (UniProt O14562)
inactive: [1] 0.007 | [2] 0.024 | [3] -0.007 | [4] -0.015 | [5] -0.024

UCHL5 (UniProt Q5LJA9)
inactive: [1] 0.002 | [2] -0.059 | [3] -0.022 | [4] -0.251 | [5] 0.133

UBTF (UniProt P17480)
inactive: [1] -0.031 | [2] 0.028 | [3] -0.012 | [4] 0.007 | [5] 0.069

TWNK (UniProt Q96RR1)
inactive: [1] 0.019 | [2] -0.066 | [3] 0.044 | [4] -0.279 | [5] 0.49

UBLCP1 (UniProt Q8WVY7)
inactive: [1] 0.013 | [2] -0.043 | [3] -0.092 | [4] 0 | [5] 0.057

TUBA3C (UniProt P0DPH7)
inactive: [1] 0.012 | [2] 0.022 | [3] 0.029 | [4] -0.017 | [5] -0.074

TXNDC9 (UniProt O14530)
inactive: [1] -0.004 | [2] 0.031 | [3] 0.017 | [4] -0.035 | [5] -0.061

UCHL3 (UniProt P15374)
inactive: [1] -0.094 | [2] -0.094 | [3] -0.021 | [4] 0 | [5] -0.01

UBXN4 (UniProt Q92575)
inactive: [1] 0.024 | [2] -0.047 | [3] -0.004 | [4] -0.065 | [5] -0.064

TXNL1 (UniProt O43396)
inactive: [1] -0.002 | [2] 0.008 | [3] -0.015 | [4] -0.009 | [5] 0.014

UBE4A isoform 2 (UniProt Q14139)
inactive: [1] -0.016 | [2] -0.041 | [3] 0.003 | [4] 0.043 | [5] 0.051

TWF2 (UniProt Q6IBS0)
inactive: [1] 0.023 | [2] 0.004 | [3] -0.023 | [4] -0.012 | [5] -0.027

UBE3C (UniProt Q15386)
inactive: [1] -0.027 | [2] -0.04 | [3] 0.127 | [4] 0.066 | [5] 0.039

UBE3A (UniProt Q05086)
inactive: [1] -0.004 | [2] 0.007 | [3] -0.006 | [4] -0.017 | [5] -0.029

UBA2 (UniProt Q9UBT2)
inactive: [1] 0.02 | [2] 0.027 | [3] -0.01 | [4] -0.003 | [5] 0.013

TYW1 (UniProt Q9NV66)
inactive: [1] 0.026 | [2] 0.108 | [3] -0.05 | [4] -0.062 | [5] 0.015

UBR5 (UniProt O95071)
inactive: [1] -0.011 | [2] 0.012 | [3] 0.012 | [4] -0.018 | [5] 0.01
